Results as given in patent US20020165153A1.
No constants are given. Whether binding was seen depends on the method and setting. Some binding calls cover weakened binding; strength is not graded here.

Biological target: T1, wild-type cJun, P05412
T1 chain: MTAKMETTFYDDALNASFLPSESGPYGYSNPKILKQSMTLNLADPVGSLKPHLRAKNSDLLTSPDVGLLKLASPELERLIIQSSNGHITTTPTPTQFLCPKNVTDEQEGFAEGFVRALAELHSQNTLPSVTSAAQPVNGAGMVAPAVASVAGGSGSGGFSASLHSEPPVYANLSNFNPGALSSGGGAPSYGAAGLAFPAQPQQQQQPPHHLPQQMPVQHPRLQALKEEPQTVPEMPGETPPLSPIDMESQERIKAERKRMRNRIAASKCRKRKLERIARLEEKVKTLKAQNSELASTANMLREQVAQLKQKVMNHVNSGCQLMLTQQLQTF
Assay: protein interaction without DNA (mammalian two hybrid analysis); ATF2 is the reference that binds better than ATF2-m5
Settings: remark: other sources report otherwise

B1: ATF2, P15336 1-505 (protein, UniProt P15336 1-505, looked up)
chain: MKFKLHVNSARQYKDLWNMSDDKPFLCTAPGCGQRFTNEDHLAVHKHKHEMTLKFGPARNDSVIVADQTPTPTRFLKNCEEVGLFNELASPFENEFKKASEDDIKKMPLDLSPLATPIIRSKIEEPSVVETTHQDSPLPHPESTTSDEKEVPLAQTAQPTSAIVRPASLQVPNVLLTSSDSSVIIQQAVPSPTSSTVITQAPSSNRPIVPVPGPFPLLLHLPNGQTMPVAIPASITSSNVHVPAAVPLVRPVTMVPSVPGIPGPSSPQPVQSEAKMRLKAALTQQHPPVTNGDTVKGHGSGLVRTQSEESRPQSLQQPATSTTETPASPAHTTPQTQSTSGRRRRAANEDPDEKRRKFLERNRAAASRCRQKRKVWVQSLEKKAEDLSSLNGQLQSEVTLLRNEVAQLKQLLLAHKDCPVTAMQKKSGYHTADKDDSSEDISVPSSPHTEAIQHSSVSTSNGVSSTSKAEAVATSVLTQMADQSTEPALSQIVMAPSSQSQPSGS
- binding: binds
